# PubChem BioAssay AID652243 – Drosophila RNAi Screening Center | 2013
# Screen: 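Knock-downs that decrease or increase androgen receptor reporter signal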 (primary screen)
# System: Drosophila S2R+ cells
# Knock-down reagent: long dsRNA against Drosophila genes
# Timing: 72 h (48 h, then 24 h hormone)
# Challenge: synthetic androgen R1881 at 10 nM for 24 h
# Read-out: 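Firefly light from an androgen-responsive reporter and Renilla control light per well, raw and unnormalised, for each of two replicates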
# Direction: firefly reporter light: higher = more light from androgen-responsive reporter; Renilla control light: higher = more constitutive control signal (cell number, transfection)
# Hit rule: 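Across duplicate plates, a knock-down whose log firefly/Renilla ratio shifted a set fold down or up from the GFP/LacZ control mean was a hit; the downward cut appears as both 1.5 and 3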
# Calls: active = hit: reporter lowered or raised; inactive = no hit
# In all, the deposit lists about 24,000 reagents; shown is an unselected part of those that have a named target and a result. In the full data, 246 (1%) got an active call. 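Plates not normalised; calls are printed but the firefly/Renilla ratio behind them is not deposited; fold cut for lowering reported inconsistently.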 Raw values are not corrected between plates. The numbers tell different reagents against one gene apart. A plus sign joins genes that one reagent is predicted to hit. Reagent sequences are not shown. Not stated in the record: the amount of reagent.
gene,reagent no.,"firefly reporter light, replicate 1","firefly reporter light, replicate 2","Renilla control light, replicate 1","Renilla control light, replicate 2",outcome
Ir56d,1,1.21e5,1.62e5,1.53e6,1.55e6,inactive
Ir56d,2,5.08e5,4.99e5,1.08e6,1.34e6,inactive
CG17493,1,2.61e5,2.04e5,1.29e6,9.29e5,inactive
axo,1,4.78e5,5.67e5,2.54e6,4.14e6,inactive
axo,2,1.10e5,94985,1.51e6,1.62e6,inactive
axo,3,4.40e5,4.48e5,1.93e6,1.81e6,inactive
axo,4,5.50e5,6.65e5,1.14e6,1.51e6,inactive
axo,5,3.16e5,5.42e5,1.19e6,1.80e6,inactive
Doc3,1,2.81e5,1.46e5,3.11e6,1.21e6,inactive
Doc3,2,6.88e5,5.79e5,1.50e6,1.25e6,inactive
en,1,3.26e5,2.41e5,1.54e6,1.21e6,inactive
en,2,5.30e5,3.49e5,6.61e5,5.33e5,inactive
CG11911,1,7.51e5,1.00e6,1.85e6,1.38e6,inactive
CG11911,2,3.90e5,4.19e5,3.07e5,4.15e5,inactive
fabp + sea,1,80253,96385,3.33e5,5.37e5,inactive
fabp + sea,2,50887,47308,3.51e5,4.57e5,inactive
CLS,1,1.91e5,2.14e5,2.44e6,2.38e6,inactive
CLS,2,3.34e5,4.85e5,8.91e5,1.07e6,inactive
CG42747,1,88424,92191,8.73e5,1.62e6,inactive
CG42747,2,1.33e5,1.40e5,1.42e6,2.22e6,inactive
CG42747,3,2.90e5,3.45e5,6.43e5,6.75e5,inactive
CG32188 + CG32189,1,9.93e5,1.10e6,1.35e6,1.25e6,inactive
CG30095,1,74593,1.29e5,1.64e6,1.64e6,inactive
fd19B,1,5.09e5,6.60e5,1.82e6,2.11e6,inactive
fd19B,2,4.21e5,3.23e5,5.52e5,3.54e5,inactive
CG18404,1,3.12e5,3.57e5,2.82e6,3.39e6,inactive
CG13010,1,3.20e5,2.66e5,3.32e6,2.23e6,inactive
CG13010,2,2.08e5,2.10e5,5.72e5,9.03e5,inactive
Fer1,1,48649,63869,1.38e6,1.37e6,inactive
Fer1,2,38088,57251,1.08e6,1.03e6,inactive
Fer1,3,5.35e5,3.95e5,1.52e6,1.46e6,inactive
CG31798,1,3.07e5,3.90e5,7.80e5,8.59e5,inactive
CG31798,2,6.26e5,3.34e5,1.77e6,7.13e5,inactive
CG14246,1,3.28e5,3.01e5,2.07e6,2.41e6,inactive
CG14246,2,7.14e5,5.23e5,8.31e5,8.06e5,inactive
CG14762,1,1.96e5,2.16e5,2.62e5,1.83e5,inactive
CG14762,2,3.04e5,4.78e5,1.79e6,1.58e6,inactive
insc,1,2.06e5,2.52e5,1.93e6,2.09e6,inactive
Saf-B,1,24989,69168,4.02e5,5.81e5,inactive
Saf-B,2,5.63e5,1.08e6,8.75e5,1.22e6,inactive
Odc2,1,4.36e5,4.42e5,1.91e6,1.81e6,inactive
Odc2,2,3.02e5,2.89e5,1.21e6,1.14e6,active
Odc2,3,1.01e6,1.01e6,1.30e6,1.46e6,inactive
Rab9Db + Rab9D + Rab9Fa + 1 more,1,2.21e6,7.92e5,2.68e6,1.14e6,inactive
bigmax,1,1.54e5,85452,9.51e5,9.01e5,inactive
bigmax,2,2.48e5,2.12e5,4.30e5,5.29e5,inactive
CG2577,1,3.25e5,3.38e5,1.98e6,2.13e6,inactive
CG2577,2,6.85e5,6.77e5,9.71e5,8.68e5,inactive
CG2577,3,2.37e5,2.83e5,5.13e5,5.22e5,inactive
rdgC,1,2.46e5,2.36e5,2.10e6,3.07e6,active
rdgC,2,,,,,inactive
rdgC,3,,,,,inactive
CG3592,1,1.49e5,2.05e5,2.11e6,1.90e6,inactive
CG13367,1,4.84e5,4.36e5,4.44e6,4.02e6,inactive
CG13367,2,2.80e5,3.89e5,3.40e6,3.59e6,inactive
CG41378,1,9.68e5,8.26e5,1.84e6,1.92e6,inactive
CG17242,1,1.26e5,92332,8.24e5,5.99e5,inactive
Roc1b + Cdc5,1,74049,77998,1.59e6,1.37e6,inactive
Roc1b + Cdc5,2,5.24e5,3.79e5,1.01e6,6.25e5,inactive
Cpr65Eb,1,1.69e5,1.95e5,1.76e6,2.36e6,inactive
Cpr65Eb,2,9.63e5,1.04e6,1.15e6,1.20e6,inactive
CG17169,1,1.09e5,1.43e5,3.67e5,3.54e5,inactive
CG5850,1,6.46e5,9.40e5,1.33e6,1.70e6,inactive
lncRNA:CR31647,1,4.18e5,4.40e5,1.39e6,1.62e6,inactive
lncRNA:CR31647,2,6.93e5,6.84e5,8.39e5,9.21e5,inactive
CG9150,1,2.55e5,1.92e5,2.00e6,1.28e6,inactive
CG9150,2,8.51e5,7.59e5,1.18e6,1.32e6,inactive
AP-1sigma,1,1.00e5,1.47e5,1.31e6,1.31e6,inactive
CG10527,1,7.56e5,3.26e5,2.23e6,1.35e6,inactive
CG10527,2,2.93e5,2.75e5,6.01e5,6.97e5,inactive
CG14892,1,1.13e5,98954,1.96e6,1.98e6,inactive
ntc,1,1.07e6,1.32e6,1.76e6,2.23e6,inactive
Cht10,1,8.47e5,6.97e5,1.55e6,1.47e6,inactive
Cht10,2,3.02e5,2.36e5,1.94e6,2.07e6,inactive
Cht10,3,2.13e5,2.81e5,1.34e6,1.28e6,inactive

Entries listed above called active:
gene,reagent no.,"firefly reporter light, replicate 1","firefly reporter light, replicate 2","Renilla control light, replicate 1","Renilla control light, replicate 2",outcome
Odc2,2,3.02e5,2.89e5,1.21e6,1.14e6,active
rdgC,1,2.46e5,2.36e5,2.10e6,3.07e6,active
